Results taken from publication doi:10.1101/2021.03.09.434627.
Residue numbers refer to the chain shown, from its start. In names and notes the source's numbering stands. No constants are given. Whether binding was seen depends on the method and setting. In cells and extracts the contact can be indirect. Some entries that bind do so weakly or less than the wild type. Where a sequence is shown, tags or fusion partners need not be part of it.

T1: His6-HSCA2-Myc (Arabidopsis) (UniProt Q9LDZ0)
T1 sequence: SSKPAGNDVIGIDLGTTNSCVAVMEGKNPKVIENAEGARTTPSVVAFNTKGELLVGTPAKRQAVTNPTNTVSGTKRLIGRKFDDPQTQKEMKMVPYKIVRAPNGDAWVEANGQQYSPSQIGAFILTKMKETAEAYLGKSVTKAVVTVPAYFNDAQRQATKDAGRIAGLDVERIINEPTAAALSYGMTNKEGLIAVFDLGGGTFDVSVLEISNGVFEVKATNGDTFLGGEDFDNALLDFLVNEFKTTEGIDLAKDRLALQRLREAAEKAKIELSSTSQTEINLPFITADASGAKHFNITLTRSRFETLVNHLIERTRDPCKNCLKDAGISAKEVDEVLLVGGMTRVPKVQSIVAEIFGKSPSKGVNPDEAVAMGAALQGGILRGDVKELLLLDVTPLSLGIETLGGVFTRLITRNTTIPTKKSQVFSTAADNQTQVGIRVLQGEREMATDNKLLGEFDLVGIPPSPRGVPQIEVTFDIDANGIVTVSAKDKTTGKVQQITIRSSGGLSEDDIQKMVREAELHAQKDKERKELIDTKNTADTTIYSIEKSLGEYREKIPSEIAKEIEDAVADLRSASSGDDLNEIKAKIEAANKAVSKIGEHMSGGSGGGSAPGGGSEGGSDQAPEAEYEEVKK

T2: His6-HSCA2^G87D-Myc (Arabidopsis) (UniProt Q9LDZ0)
T2 sequence: T1 sequence with G37D

B1: ISU1-Myc (protein, UniProt O49627 51-167)
chain: PNVGTGLVGAPACGDVMKLQIKVDEKTGQIVDARFKTFGCGSAIASSSVATEWVKGKAMEDVLTIKNTEIAKHLSLPPVKLHCSMLAEDAIKAAVKDYKEKRVKTNGAAAAGETTQA
B2: ISU1^T55M-Myc (protein, UniProt O49627 51-167)
chain: B1 chain with T5M
B3: ISU1^T55ML126A (protein, UniProt O49627 51-167)
chain: B1 chain with T5M, L76A
B4: ISU1^T55MP127A (protein, UniProt O49627 51-167)
chain: B1 chain with T5M, P77A
B5: ISU1^T55MP128S (protein, UniProt O49627 51-167)
chain: B1 chain with T5M, P78S
B6: ISU1^T55MAAA (protein, UniProt O49627 51-167)
chain: B1 chain with T5M, P78A, V79A, K80A

Molecular target: T1, His6-HSCA2-Myc (Arabidopsis)
Assay: pull-down

binding	Binder
binds	B1
binds	B2
binds	B3
binds	B4
binds	B5
binds weakly	B6

Molecular target: T2, His6-HSCA2^G87D-Myc (Arabidopsis)
Assay: pull-down

binding	Binder
binds	B1
